Source: paper doi:10.1101/592881
No constants are given. Whether binding was seen depends on the method and setting. In cells and extracts the contact can be indirect. A result given as binding can be weak or reduced; the word gives no strength. Where a sequence is shown, tags or fusion partners need not be part of it.

Target: PNPAR tagged with the C-terminal part of YFP (Arabidopsis thaliana)
Assay: split reporter

AQGKAVYYDPPYTRSACYGTQRETLVVGVKNNLWQNGRACGRRY (domain or fragment, UniProt Q9ZV52 26-69) [truncated PNP-A (Met1 to Tyr69) tagged with the N-terminal part of YFP] was tested, and the binding was “binds”.
